Here are results for 1 substance from publication PMC8217685.

The chains behind the UniProt entries cited, without tags or fusion partners.
UniProt A0A1D8PLA9: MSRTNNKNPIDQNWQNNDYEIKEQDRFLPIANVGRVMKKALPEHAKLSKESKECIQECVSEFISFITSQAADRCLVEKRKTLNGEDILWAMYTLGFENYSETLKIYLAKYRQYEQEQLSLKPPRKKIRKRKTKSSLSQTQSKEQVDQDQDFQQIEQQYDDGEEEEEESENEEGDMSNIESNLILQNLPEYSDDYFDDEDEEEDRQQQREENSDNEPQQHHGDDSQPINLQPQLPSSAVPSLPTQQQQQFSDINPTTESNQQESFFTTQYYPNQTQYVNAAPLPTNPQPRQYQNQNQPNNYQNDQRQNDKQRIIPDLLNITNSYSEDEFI

For this assay, the target named is Hap5-TAP (C. albicans). The assay can be described thus: co-IP; 5 mg C. albicans whole-cell extract (Winston buffer: 40 mM HEPES-NaOH pH 7.5, 350 mM NaCl, 10% glycerol, 0.1% Tween 20); TAP-tagged subunit captured on IgG-Sepharose for 4 h at 4 °C and eluted with AcTEV protease; blot probed with anti-FLAG; cells grown in -Fe (BPS) or +Fe (BPS plus FAS); WT, hap2Δ/Δ or hap3Δ/Δ (+Fe) backgrounds.

Results are given in words; binding and its absence hold for the method and conditions named. In cells and extracts the contact can be indirect. Binding can be weak; no strength is given.

As to “Hap3-FLAG (from UniProt A0A1D8PLA9 1-329)”, the binding entry is “binds”.
